Experimental data published in the supplement of paper PMC8728848.
The other results are listed elsewhere or left out.

Assays:
Assay in all cases: glycan array binding signal (z-score within array); higher = stronger binding
Conditions in all cases: glycan notation: IUPAC condensed, linker removed; mutation: R201A
[1] = biological target: GlcNAc(a1-6)Gal(b1-4)GlcNAc
How it was run: (§1)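 Glycan array data were curated from 3228 arrays in the Consortium for Functional Glycomics database and kept only where the protein sequence was available. Glycan names were converted to IUPAC-condensed notation, and columns mapping to the same glycan were averaged. The binding signal is a within-array Z-score, averaged across arrays of the same protein sequence at different concentrations or buffers and across linkers. Negative Z-scores can be read as non-binding.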

[2] = biological target: GlcNAc(b1-2)Gal(b1-3)GalNAc
How it was run: as §1

[3] = biological target: GlcNAc(b1-2)Man(a1-3)[GlcNAc(b1-2)Man(a1-6)]Man(b1-4)GlcNAc(b1-4)GlcNAc
How it was run: as §1

[4] = biological target: GlcNAc(b1-2)Man(a1-3)[GlcNAc(b1-2)Man(a1-6)]Man(b1-4)GlcNAc(b1-4)[Fuc(a1-6)]GlcNAc
How it was run: as §1

[5] = biological target: GlcNAc(b1-2)Man(a1-3)[GlcNAc(b1-4)][GlcNAc(b1-2)Man(a1-6)]Man(b1-4)GlcNAc(b1-4)GlcNAc
How it was run: as §1

[6] = biological target: GlcNAc(b1-2)Man(a1-3)[GlcNAc(b1-4)][GlcNAc(b1-2)Man(a1-6)]Man(b1-4)GlcNAc(b1-4)[Fuc(a1-6)]GlcNAc
How it was run: as §1

[7] = biological target: GlcNAc(b1-2)[GlcNAc(b1-4)]Man(a1-3)[GlcNAc(b1-2)Man(a1-6)]Man(b1-4)GlcNAc(b1-4)GlcNAc
How it was run: as §1

[8] = biological target: GlcNAc(b1-2)[GlcNAc(b1-4)]Man(a1-3)[GlcNAc(b1-4)][GlcNAc(b1-2)Man(a1-6)]Man(b1-4)GlcNAc(b1-4)GlcNAc
How it was run: as §1

[9] = biological target: GlcNAc(b1-2)[GlcNAc(b1-4)]Man(a1-3)[GlcNAc(b1-4)][GlcNAc(b1-2)[GlcNAc(b1-6)]Man(a1-6)]Man(b1-4)GlcNAc(b1-4)GlcNAc
How it was run: as §1

[10] = biological target: GlcNAc(b1-2)[GlcNAc(b1-4)]Man(a1-3)[GlcNAc(b1-4)][GlcNAc(b1-2)[GlcNAc(b1-6)]Man(a1-6)]Man(b1-4)GlcNAc(b1-4)[Fuc(a1-6)]GlcNAc
How it was run: as §1

[11] = biological target: GlcNAc(b1-2)[GlcNAc(b1-6)]Man(a1-6)[GlcNAc(b1-2)Man(a1-3)]Man(b1-4)GlcNAc(b1-4)GlcNAc
How it was run: as §1

[12] = biological target: GlcNAc(b1-2)[GlcNAc(b1-6)]Man(a1-6)[GlcNAc(b1-2)Man(a1-3)]Man(b1-4)GlcNAc(b1-4)[Fuc(a1-6)]GlcNAc
How it was run: as §1

[13] = biological target: GlcNAc(b1-2)[GlcNAc(b1-6)]Man(a1-6)[GlcNAc(b1-4)][GlcNAc(b1-2)Man(a1-3)]Man(b1-4)GlcNAc(b1-4)GlcNAc
How it was run: as §1

GlcNAc(b1-3)Fuc = biological target: GlcNAc(b1-3)Fuc
How it was run: as §1

GlcNAc(b1-3)Gal = biological target: GlcNAc(b1-3)Gal
How it was run: as §1

[14] = biological target: GlcNAc(b1-3)Gal(b1-3)GalNAc
How it was run: as §1

GlcNAc(b1-3)Gal(b1-4)Glc = biological target: GlcNAc(b1-3)Gal(b1-4)Glc
How it was run: as §1

[15] = biological target: GlcNAc(b1-3)Gal(b1-4)GlcNAc
How it was run: as §1

[16] = biological target: GlcNAc(b1-3)Gal(b1-4)GlcNAc(b1-2)Man(a1-3)[GlcNAc(b1-3)Gal(b1-4)GlcNAc(b1-2)Man(a1-6)]Man(b1-4)GlcNAc(b1-4)GlcNAc
How it was run: as §1

[17] = biological target: GlcNAc(b1-3)Gal(b1-4)GlcNAc(b1-2)Man(a1-3)[GlcNAc(b1-3)Gal(b1-4)GlcNAc(b1-2)Man(a1-6)]Man(b1-4)GlcNAc(b1-4)[Fuc(a1-6)]GlcNAc
How it was run: as §1

[18] = biological target: GlcNAc(b1-3)Gal(b1-4)GlcNAc(b1-2)[GlcNAc(b1-3)Gal(b1-4)GlcNAc(b1-6)]Man(a1-6)[GlcNAc(b1-3)Gal(b1-4)GlcNAc(b1-2)Man(a1-3)]Man(b1-4)GlcNAc(b1-4)GlcNAc
How it was run: as §1

[19] = biological target: GlcNAc(b1-3)Gal(b1-4)GlcNAc(b1-3)Gal(b1-4)GlcNAc
How it was run: as §1

[20] = biological target: GlcNAc(b1-3)Gal(b1-4)GlcNAc(b1-3)Gal(b1-4)GlcNAc(b1-2)Man(a1-3)[GlcNAc(b1-3)Gal(b1-4)GlcNAc(b1-3)Gal(b1-4)GlcNAc(b1-2)Man(a1-6)]Man(b1-4)GlcNAc(b1-4)GlcNAc
How it was run: as §1

[21] = biological target: GlcNAc(b1-3)Gal(b1-4)GlcNAc(b1-3)Gal(b1-4)GlcNAc(b1-2)Man(a1-3)[GlcNAc(b1-3)Gal(b1-4)GlcNAc(b1-3)Gal(b1-4)GlcNAc(b1-2)Man(a1-6)]Man(b1-4)GlcNAc(b1-4)[Fuc(a1-6)]GlcNAc
How it was run: as §1

[22] = biological target: GlcNAc(b1-3)Gal(b1-4)GlcNAc(b1-3)Gal(b1-4)GlcNAc(b1-2)[GlcNAc(b1-3)Gal(b1-4)GlcNAc(b1-3)Gal(b1-4)GlcNAc(b1-6)]Man(a1-6)[GlcNAc(b1-3)Gal(b1-4)GlcNAc(b1-3)Gal(b1-4)GlcNAc(b1-2)Man(a1-3)]Man(b1-4)GlcNAc(b1-4)[Fuc(a1-6)]GlcNAc
How it was run: as §1

[23] = biological target: GlcNAc(b1-3)Gal(b1-4)GlcNAc(b1-3)Gal(b1-4)GlcNAc(b1-3)Gal(b1-4)GlcNAc(b1-2)Man(a1-3)[GlcNAc(b1-3)Gal(b1-4)GlcNAc(b1-3)Gal(b1-4)GlcNAc(b1-3)Gal(b1-4)GlcNAc(b1-2)Man(a1-6)]Man(b1-4)GlcNAc(b1-4)GlcNAc
How it was run: as §1

[24] = biological target: GlcNAc(b1-3)Gal(b1-4)GlcNAc(b1-3)Gal(b1-4)GlcNAc(b1-3)Gal(b1-4)GlcNAc(b1-2)Man(a1-3)[GlcNAc(b1-3)Gal(b1-4)GlcNAc(b1-3)Gal(b1-4)GlcNAc(b1-3)Gal(b1-4)GlcNAc(b1-2)Man(a1-6)]Man(b1-4)GlcNAc(b1-4)[Fuc(a1-6)]GlcNAc
How it was run: as §1

[25] = biological target: GlcNAc(b1-3)Gal(b1-4)GlcNAc(b1-3)Gal(b1-4)GlcNAc(b1-3)Gal(b1-4)GlcNAc(b1-2)[GlcNAc(b1-3)Gal(b1-4)GlcNAc(b1-3)Gal(b1-4)GlcNAc(b1-3)Gal(b1-4)GlcNAc(b1-6)]Man(a1-6)[GlcNAc(b1-3)Gal(b1-4)GlcNAc(b1-3)Gal(b1-4)GlcNAc(b1-3)Gal(b1-4)GlcNAc(b1-2)Man(a1-3)]Man(b1-4)GlcNAc(b1-4)[Fuc(a1-6)]GlcNAc
How it was run: as §1

[26] = biological target: GlcNAc(b1-3)Gal(b1-4)GlcNAc(b1-3)Gal(b1-4)GlcNAc(b1-3)Gal(b1-4)GlcNAc(b1-3)Gal(b1-4)GlcNAc(b1-2)Man(a1-3)[GlcNAc(b1-3)Gal(b1-4)GlcNAc(b1-3)Gal(b1-4)GlcNAc(b1-3)Gal(b1-4)GlcNAc(b1-3)Gal(b1-4)GlcNAc(b1-2)Man(a1-6)]Man(b1-4)GlcNAc(b1-4)GlcNAc
How it was run: as §1

[27] = biological target: GlcNAc(b1-3)Gal(b1-4)GlcNAc(b1-3)Gal(b1-4)GlcNAc(b1-3)Gal(b1-4)GlcNAc(b1-3)Gal(b1-4)GlcNAc(b1-2)Man(a1-3)[GlcNAc(b1-3)Gal(b1-4)GlcNAc(b1-3)Gal(b1-4)GlcNAc(b1-3)Gal(b1-4)GlcNAc(b1-3)Gal(b1-4)GlcNAc(b1-2)Man(a1-6)]Man(b1-4)GlcNAc(b1-4)[Fuc(a1-6)]GlcNAc
How it was run: as §1

[28] = biological target: GlcNAc(b1-3)Gal(b1-4)GlcNAc(b1-3)Gal(b1-4)GlcNAc(b1-3)Gal(b1-4)GlcNAc(b1-3)Gal(b1-4)GlcNAc(b1-2)[GlcNAc(b1-3)Gal(b1-4)GlcNAc(b1-3)Gal(b1-4)GlcNAc(b1-3)Gal(b1-4)GlcNAc(b1-3)Gal(b1-4)GlcNAc(b1-6)]Man(a1-6)[GlcNAc(b1-3)Gal(b1-4)GlcNAc(b1-3)Gal(b1-4)GlcNAc(b1-3)Gal(b1-4)GlcNAc(b1-3)Gal(b1-4)GlcNAc(b1-2)Man(a1-3)]Man(b1-4)GlcNAc(b1-4)[Fuc(a1-6)]GlcNAc
How it was run: as §1

[29] = biological target: GlcNAc(b1-3)Gal(b1-4)GlcNAc(b1-3)Gal(b1-4)GlcNAc(b1-3)GalNAc
How it was run: as §1

[30] = biological target: GlcNAc(b1-3)Gal(b1-4)GlcNAc(b1-3)GalNAc
How it was run: as §1

[31] = biological target: GlcNAc(b1-3)Gal(b1-4)GlcNAc(b1-3)[GlcNAc(b1-3)Gal(b1-4)GlcNAc(b1-3)]GalNAc
How it was run: as §1

[32] = biological target: GlcNAc(b1-3)Gal(b1-4)GlcNAc(b1-6)[Gal(b1-3)]GalNAc
How it was run: as §1

[33] = biological target: GlcNAc(b1-3)Gal(b1-4)GlcNAc(b1-6)[GlcNAc(b1-3)Gal(b1-3)]GalNAc
How it was run: as §1

[34] = biological target: GlcNAc(b1-3)Gal(b1-4)GlcNAc(b1-6)[GlcNAc(b1-3)]Gal(b1-4)GlcNAc
How it was run: as §1

B1: OS9 (Arabidopsis thaliana) (protein)
chain: MRGSHHHHHHGMASMTGGQQMGRDLYDDDDKSRLQIFPAHLVGTFSRNNREPKYKIEFLPEDSPFHPGDNLESMVMLDKHGNRFLCYLPKEEKATSGWTSSQQNISTVMMETQQLVKLKTPDELLQPLSEKCLFRQEGWWSYEFCHQKYVRQLHVEDENKIVQEFFLGTFDPEATAAFNQTVSDASTDASQRYHSHVYTNGTTCDLTGSPAEVEVRFVCAETRAMVTSITELSTCKYALTVQCPTLCKHPLFQLEKPVSHTIHCNAIPVEEDATRNKEEQAVDESPKMIADS
glycan array binding signal (z-score) [1]: -0.134
glycan array binding signal (z-score) [2]: -1.1
glycan array binding signal (z-score) [3]: -0.533
glycan array binding signal (z-score) [4]: 0.257
glycan array binding signal (z-score) [5]: 0.301
glycan array binding signal (z-score) [6]: 1.2
glycan array binding signal (z-score) [7]: -0.032
glycan array binding signal (z-score) [8]: -0.368
glycan array binding signal (z-score) [9]: 0.68
glycan array binding signal (z-score) [10]: -0.546
glycan array binding signal (z-score) [11]: -0.781
glycan array binding signal (z-score) [12]: -0.361
glycan array binding signal (z-score) [13]: 0.294
glycan array binding signal (z-score) (GlcNAc(b1-3)Fuc): 0.403
glycan array binding signal (z-score) (GlcNAc(b1-3)Gal): -0.422
glycan array binding signal (z-score) [14]: 0.162
glycan array binding signal (z-score) (GlcNAc(b1-3)Gal(b1-4)Glc): 0.608
glycan array binding signal (z-score) [15]: -0.104
glycan array binding signal (z-score) [16]: 0.147
glycan array binding signal (z-score) [17]: 2.59
glycan array binding signal (z-score) [18]: -1.15
glycan array binding signal (z-score) [19]: -0.275
glycan array binding signal (z-score) [20]: 0.393
glycan array binding signal (z-score) [21]: 0.868
glycan array binding signal (z-score) [22]: 0.683
glycan array binding signal (z-score) [23]: -0.356
glycan array binding signal (z-score) [24]: 0.66
glycan array binding signal (z-score) [25]: -0.201
glycan array binding signal (z-score) [26]: -0.601
glycan array binding signal (z-score) [27]: -0.796
glycan array binding signal (z-score) [28]: -0.837
glycan array binding signal (z-score) [29]: -0.437
glycan array binding signal (z-score) [30]: 0.036
glycan array binding signal (z-score) [31]: -0.336
glycan array binding signal (z-score) [32]: -0.524
glycan array binding signal (z-score) [33]: -0.626
glycan array binding signal (z-score) [34]: 0.166
